From US20070066798A1
These are yes or no findings as the source states them, for the method shown. Some results given as binding are weak or reduced against the parent protein; the word gives no strength.

By UniProt entry, the sequences of proteins in these tests, tags left out. Residues count along the entry.
UniProt Q03405, residues 23-299: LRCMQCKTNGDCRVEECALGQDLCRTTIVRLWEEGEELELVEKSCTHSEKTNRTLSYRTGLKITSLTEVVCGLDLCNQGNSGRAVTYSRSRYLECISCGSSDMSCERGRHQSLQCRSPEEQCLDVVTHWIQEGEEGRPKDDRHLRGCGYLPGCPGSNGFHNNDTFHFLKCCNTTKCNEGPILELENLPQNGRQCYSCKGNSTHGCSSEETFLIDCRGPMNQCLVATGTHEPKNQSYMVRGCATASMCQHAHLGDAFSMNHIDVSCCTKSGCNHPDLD

Key:
[1] = molecular target: recombinant affinity-purified human uPAR (rec-uPAR) expressed in CHO cells (human) (UniProt Q03405); experiment: sandwich ELISA, capture HU277, detection IIIF10
[2] = molecular target: uPAR (urokinase receptor) (UniProt Q03405); experiment: solid-phase binding assay with scFv culture supernatant; phages selected by specific binding of uPAR

binding [1] | binding [2] | Binder
binds | – | monoclonal mouse antibody IIIF10 (antibody, V domains shown) VH: QVQLQQSGPELVKPGALVKISCKASGYSFTSYDINWVKRRPGQGLEWIGWIFPGDGSTNYNEKFKDKATLTADKSSSTAYMQLNSLTSENSAVYFCARDGSMGGFDYWGQGTTVTVSS VL: DVLMTQTPKFMSTSVGDRVSITCKASQNVRTTVAWYQEKPGQSPKALIYLASNRHTGVPDRFTGSGSGTDFTLTISNVQSEDLADYFCLQHWNYPYTFGGGTKLEIKR
– | binds | scFv IIIF10 (scFv, not shown: large carriers) scFv: QVQLQQSGPELVKPGALVKISCKASGYSFTSYDINWVKRRPGQGLEWIGWIFPGDGSTNYNEKFKDKATLTADKSSSTAYMQLNSLTSENSAVYFCARDGSMGGFDYWGQGTTVTVSSDVLMTQTPKFMSTSVGDRVSITCKASQNVRTTVAWYQEKPGQSPKALIYLASNRHTGVPDRFTGSGSGTDFTLTISNVQSEDLADYFCLQHWNYPYTFGGGTKLEIKR
